The comparison behind a weaker result is the experiment's own reference, which may not be listed here. Tags and fusion partners may be left off the protein sequences shown.

For this data set, the target named is T1, T-DBD (Brachyury T-domain) (mouse) (UniProt P20293).
T1 sequence (looked up): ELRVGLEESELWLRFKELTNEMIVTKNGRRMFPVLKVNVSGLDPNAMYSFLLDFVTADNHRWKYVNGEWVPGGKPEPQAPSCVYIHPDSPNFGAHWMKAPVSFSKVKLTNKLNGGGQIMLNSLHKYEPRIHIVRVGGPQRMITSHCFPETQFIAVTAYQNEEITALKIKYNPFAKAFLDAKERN
Nature of the data set: EMSA. Particulars: shifted less effectively, Kd not measurable, protein concentration limiting; 25 mM HEPES pH 7.4, 75 mM NaCl, 1 mM DTT, 0.25 mM EDTA, 0.1% NP-40, 1 mM MgCl2, 10% glycerol, 10 µg/ml BSA, 0.1 mg/ml poly dI-dC; room temperature, 20 min; recombinant protein; residues 41-224; protein details: N-terminal His (pET151/D-TOPO), removed by TEV; label: 32P 5' end label. (In general: Mobility shift assays separate free from complexed probe on a gel.)

With “TCACTGTAGGTGTTGCTGTCCTGT (double strand) [Dll1 BS1]”, the binding result is recorded as “binds more weakly”.

The record behind these values is paper PMC7473639, “Functionally distinct roles for T and Tbx6 during mouse development”.
